# Measured values published in the supplement of paper PMC8728848.
# The list shows a part of the results.
# B1: SspB C123 (Streptococcus gordonii), Q54186 (protein)
# chain: MAHFHYSSLLAQPQINKEIKNEDGVDIDRTLVAKQSIGKFELKTEALTAGRPKTTSFVLVDPLPTGYKFDLDATKAASTGFDTTYDEASHTVTFKATDETLATYNADLTKPVETLHPTVVGRVLNDGATYTNNFTLTVNDAYGIKSNVVRVTTPGKPNDPDNPNNNYIKPTKVNKNKEGLNIDGKEVLAGSTNYYELTWDLDQYKGDKSSKEAIQNGFYYVDDYPEEALDVRPDLVKVADEKGNQVSGVSVQQYDSLEAAPKKVQDLLKKANITVKGAFQLFSADNPEEFYKQYVSTGTSLVITDPMTVKSEFGKTGGKYENKAYQIDFGNGYATEVVVNNVPKITPKKDVTVSLDPTSENLDGQTVQLYQTFNYRLIGGFIPQNHSEELEDYSFVDDYDQAGDQYTGNYKTFSSLNLTMKDGSVIKAGTDLTSQTTAETDATNGIVTVRFKEDFLQKISLDSPFQAETYLQMRRIAIGTFENTYVNTVNKVAYASAAALEHHHHHH
# Experiments:
# Experiment in all cases: glycan array binding signal (z-score within array); higher = stronger binding
# Details in all cases: glycan notation: IUPAC condensed, linker removed
# [1] = target: GlcNAc(b1-3)Gal(b1-4)GlcNAc(b1-3)Gal(b1-4)GlcNAc(b1-2)Man(a1-3)[GlcNAc(b1-3)Gal(b1-4)GlcNAc(b1-3)Gal(b1-4)GlcNAc(b1-2)Man(a1-6)]Man(b1-4)GlcNAc(b1-4)[Fuc(a1-6)]GlcNAc
# Method in brief: (§1)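 Glycan array binding is given as a within-array Z-score, which can be read as non-binding when negative. The arrays, 3228 of them, came from the Consortium for Functional Glycomics database and were retained only where the protein sequence was available. Z-scores were averaged across arrays of the same protein sequence at different concentrations or buffers and across linkers.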
# [2] = target: GlcNAc(b1-3)Gal(b1-4)GlcNAc(b1-3)Gal(b1-4)GlcNAc(b1-2)[GlcNAc(b1-3)Gal(b1-4)GlcNAc(b1-3)Gal(b1-4)GlcNAc(b1-6)]Man(a1-6)[GlcNAc(b1-3)Gal(b1-4)GlcNAc(b1-3)Gal(b1-4)GlcNAc(b1-2)Man(a1-3)]Man(b1-4)GlcNAc(b1-4)[Fuc(a1-6)]GlcNAc
# Method in brief: as §1
# [3] = target: GlcNAc(b1-3)Gal(b1-4)GlcNAc(b1-3)Gal(b1-4)GlcNAc(b1-3)Gal(b1-4)GlcNAc(b1-2)Man(a1-3)[GlcNAc(b1-3)Gal(b1-4)GlcNAc(b1-3)Gal(b1-4)GlcNAc(b1-3)Gal(b1-4)GlcNAc(b1-2)Man(a1-6)]Man(b1-4)GlcNAc(b1-4)GlcNAc
# Method in brief: as §1
# [4] = target: GlcNAc(b1-3)Gal(b1-4)GlcNAc(b1-3)Gal(b1-4)GlcNAc(b1-3)Gal(b1-4)GlcNAc(b1-2)Man(a1-3)[GlcNAc(b1-3)Gal(b1-4)GlcNAc(b1-3)Gal(b1-4)GlcNAc(b1-3)Gal(b1-4)GlcNAc(b1-2)Man(a1-6)]Man(b1-4)GlcNAc(b1-4)[Fuc(a1-6)]GlcNAc
# Method in brief: as §1
# [5] = target: GlcNAc(b1-3)Gal(b1-4)GlcNAc(b1-3)Gal(b1-4)GlcNAc(b1-3)Gal(b1-4)GlcNAc(b1-2)[GlcNAc(b1-3)Gal(b1-4)GlcNAc(b1-3)Gal(b1-4)GlcNAc(b1-3)Gal(b1-4)GlcNAc(b1-6)]Man(a1-6)[GlcNAc(b1-3)Gal(b1-4)GlcNAc(b1-3)Gal(b1-4)GlcNAc(b1-3)Gal(b1-4)GlcNAc(b1-2)Man(a1-3)]Man(b1-4)GlcNAc(b1-4)[Fuc(a1-6)]GlcNAc
# Method in brief: as §1
# [6] = target: GlcNAc(b1-3)Gal(b1-4)GlcNAc(b1-3)Gal(b1-4)GlcNAc(b1-3)Gal(b1-4)GlcNAc(b1-3)Gal(b1-4)GlcNAc(b1-2)Man(a1-3)[GlcNAc(b1-3)Gal(b1-4)GlcNAc(b1-3)Gal(b1-4)GlcNAc(b1-3)Gal(b1-4)GlcNAc(b1-3)Gal(b1-4)GlcNAc(b1-2)Man(a1-6)]Man(b1-4)GlcNAc(b1-4)GlcNAc
# Method in brief: as §1
# [7] = target: GlcNAc(b1-3)Gal(b1-4)GlcNAc(b1-3)Gal(b1-4)GlcNAc(b1-3)Gal(b1-4)GlcNAc(b1-3)Gal(b1-4)GlcNAc(b1-2)Man(a1-3)[GlcNAc(b1-3)Gal(b1-4)GlcNAc(b1-3)Gal(b1-4)GlcNAc(b1-3)Gal(b1-4)GlcNAc(b1-3)Gal(b1-4)GlcNAc(b1-2)Man(a1-6)]Man(b1-4)GlcNAc(b1-4)[Fuc(a1-6)]GlcNAc
# Method in brief: as §1
# [8] = target: GlcNAc(b1-3)Gal(b1-4)GlcNAc(b1-3)Gal(b1-4)GlcNAc(b1-3)Gal(b1-4)GlcNAc(b1-3)Gal(b1-4)GlcNAc(b1-2)[GlcNAc(b1-3)Gal(b1-4)GlcNAc(b1-3)Gal(b1-4)GlcNAc(b1-3)Gal(b1-4)GlcNAc(b1-3)Gal(b1-4)GlcNAc(b1-6)]Man(a1-6)[GlcNAc(b1-3)Gal(b1-4)GlcNAc(b1-3)Gal(b1-4)GlcNAc(b1-3)Gal(b1-4)GlcNAc(b1-3)Gal(b1-4)GlcNAc(b1-2)Man(a1-3)]Man(b1-4)GlcNAc(b1-4)[Fuc(a1-6)]GlcNAc
# Method in brief: as §1
# [9] = target: GlcNAc(b1-3)Gal(b1-4)GlcNAc(b1-3)Gal(b1-4)GlcNAc(b1-3)GalNAc
# Method in brief: as §1
# [10] = target: GlcNAc(b1-3)Gal(b1-4)GlcNAc(b1-3)GalNAc
# Method in brief: as §1
# [11] = target: GlcNAc(b1-3)Gal(b1-4)GlcNAc(b1-3)[GlcNAc(b1-3)Gal(b1-4)GlcNAc(b1-3)]GalNAc
# Method in brief: as §1
# [12] = target: GlcNAc(b1-3)Gal(b1-4)GlcNAc(b1-6)[Gal(b1-3)]GalNAc
# Method in brief: as §1
# [13] = target: GlcNAc(b1-3)Gal(b1-4)GlcNAc(b1-6)[GlcNAc(b1-3)Gal(b1-3)]GalNAc
# Method in brief: as §1
# [14] = target: GlcNAc(b1-3)Gal(b1-4)GlcNAc(b1-6)[GlcNAc(b1-3)]Gal(b1-4)GlcNAc
# Method in brief: as §1
# GlcNAc(b1-3)GalNAc = target: GlcNAc(b1-3)GalNAc
# Method in brief: as §1
# GlcNAc(b1-3)Man = target: GlcNAc(b1-3)Man
# Method in brief: as §1
# [15] = target: GlcNAc(b1-3)[GlcNAc(b1-4)][GlcNAc(b1-6)]GlcNAc
# Method in brief: as §1
# [16] = target: GlcNAc(b1-3)[GlcNAc(b1-6)]Gal(b1-4)GlcNAc
# Method in brief: as §1
# [17] = target: GlcNAc(b1-3)[GlcNAc(b1-6)]GalNAc
# Method in brief: as §1
# [18] = target: GlcNAc(b1-4)Gal(b1-4)GlcNAc
# Method in brief: as §1
# GlcNAc(b1-4)GlcNAc = target: GlcNAc(b1-4)GlcNAc
# Method in brief: as §1
# [19] = target: GlcNAc(b1-4)GlcNAc(b1-4)GlcNAc
# Method in brief: as §1
# [20] = target: GlcNAc(b1-4)GlcNAc(b1-4)GlcNAc(b1-4)GlcNAc(b1-4)GlcNAc
# Method in brief: as §1
binder,measurement,setting,value
B1,glycan array binding signal (z-score),[1],0.678
same,glycan array binding signal (z-score),[2],0.558
same,glycan array binding signal (z-score),[3],0.327
same,glycan array binding signal (z-score),[4],0.372
same,glycan array binding signal (z-score),[5],-0.324
same,glycan array binding signal (z-score),[6],1
same,glycan array binding signal (z-score),[7],-0.074
same,glycan array binding signal (z-score),[8],0.594
same,glycan array binding signal (z-score),[9],-0.223
same,glycan array binding signal (z-score),[10],-1.44
same,glycan array binding signal (z-score),[11],0.786
same,glycan array binding signal (z-score),[12],0.608
same,glycan array binding signal (z-score),[13],0.099
same,glycan array binding signal (z-score),[14],-0.188
same,glycan array binding signal (z-score),GlcNAc(b1-3)GalNAc,-0.082
same,glycan array binding signal (z-score),GlcNAc(b1-3)Man,-0.978
same,glycan array binding signal (z-score),[15],-0.012
same,glycan array binding signal (z-score),[16],-1.2
same,glycan array binding signal (z-score),[17],-0.348
same,glycan array binding signal (z-score),[18],-0.313
same,glycan array binding signal (z-score),GlcNAc(b1-4)GlcNAc,-0.651
same,glycan array binding signal (z-score),[19],-0.442
same,glycan array binding signal (z-score),[20],0.299

# Some of the entries so far, with bars between the fields.
binder | measurement | setting | value
B1 | glycan array binding signal (z-score) | GlcNAc(b1-3)Man | -0.978
same | glycan array binding signal (z-score) | [20] | 0.299
